Results as given in paper doi:10.1101/2025.09.04.674188.
These are yes or no findings as the source states them, for the method shown. Binding seen in cells or lysates may run through a third protein. A yes stands for co-enrichment or nearness to the bait. Other partners may have been found.

Sequences of proteins named here, by UniProt entry; tags and fusion partners are left off.
UniProt Q9Y5X4: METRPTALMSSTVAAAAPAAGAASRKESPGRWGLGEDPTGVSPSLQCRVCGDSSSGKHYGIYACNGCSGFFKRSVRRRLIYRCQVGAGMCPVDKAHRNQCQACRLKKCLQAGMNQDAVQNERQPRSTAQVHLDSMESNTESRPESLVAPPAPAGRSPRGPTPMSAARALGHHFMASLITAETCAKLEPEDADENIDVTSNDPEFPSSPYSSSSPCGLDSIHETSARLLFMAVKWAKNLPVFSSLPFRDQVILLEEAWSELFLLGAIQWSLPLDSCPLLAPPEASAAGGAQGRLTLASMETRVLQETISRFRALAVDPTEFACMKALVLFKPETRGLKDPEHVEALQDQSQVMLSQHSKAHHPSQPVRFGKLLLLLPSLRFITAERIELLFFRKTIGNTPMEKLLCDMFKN

B1: CPSF3 (protein, UniProt Q9UKF6 1-684)
chain: MSAIPAEESDQLLIRPLGAGQEVGRSCIILEFKGRKIMLDCGIHPGLEGMDALPYIDLIDPAEIDLLLISHFHLDHCGALPWFLQKTSFKGRTFMTHATKAIYRWLLSDYVKVSNISADDMLYTETDLEESMDKIETINFHEVKEVAGIKFWCYHAGHVLGAAMFMIEIAGVKLLYTGDFSRQEDRHLMAAEIPNIKPDILIIESTYGTHIHEKREEREARFCNTVHDIVNRGGRGLIPVFALGRAQELLLILDEYWQNHPELHDIPIYYASSLAKKCMAVYQTYVNAMNDKIRKQININNPFVFKHISNLKSMDHFDDIGPSVVMASPGMMQSGLSRELFESWCTDKRNGVIIAGYCVEGTLAKHIMSEPEEITTMSGQKLPLKMSVDYISFSAHTDYQQTSEFIRALKPPHVILVHGEQNEMARLKAALIREYEDNDEVHIEVHNPRNTEAVTLNFRGEKLAKVMGFLADKKPEQGQRVSGILVKRNFNYHILSPCDLSNYTDLAMSTVKQTQAIPYTGPFNLLCYQLQKLTGDVEELEIQEKPALKVFKNITVIQEPGMVVLEWLANPSNDMYADTVTTVILEVQSNPKIRKGAVQKVSKKLEMHVYSKRLEIMLQDIFGEDCVSVKDDSILSVTVDGKTANLNLETRTVECEEGSEDDESLREMVELAAQRLYEALTPVH
B2: CPSF2 (protein, UniProt Q9P2I0 1-782)
chain: MTSIIKLTTLSGVQEESALCYLLQVDEFRFLLDCGWDEHFSMDIIDSLRKHVHQIDAVLLSHPDPLHLGALPYAVGKLGLNCAIYATIPVYKMGQMFMYDLYQSRHNTEDFTLFTLDDVDAAFDKIQQLKFSQIVNLKGKGHGLSITPLPAGHMIGGTIWKIVKDGEEEIVYAVDFNHKREIHLNGCSLEMLSRPSLLITDSFNATYVQPRRKQRDEQLLTNVLETLRGDGNVLIAVDTAGRVLELAQLLDQIWRTKDAGLGVYSLALLNNVSYNVVEFSKSQVEWMSDKLMRCFEDKRNNPFQFRHLSLCHGLSDLARVPSPKVVLASQPDLECGFSRDLFIQWCQDPKNSIILTYRTTPGTLARFLIDNPSEKITEIELRKRVKLEGKELEEYLEKEKLKKEAAKKLEQSKEADIDSSDESDIEEDIDQPSAHKTKHDLMMKGEGSRKGSFFKQAKKSYPMFPAPEERIKWDEYGEIIKPEDFLVPELQATEEEKSKLESGLTNGDEPMDQDLSDVPTKCISTTESIEIKARVTYIDYEGRSDGDSIKKIINQMKPRQLIIVHGPPEASQDLAECCRAFGGKDIKVYMPKLHETVDATSETHIYQVRLKDSLVSSLQFCKAKDAELAWIDGVLDMRVSKVDTGVILEEGELKDDGEDSEMQVEAPSDSSVIAQQKAMKSLFGDDEKETGEESEIIPTLEPLPPHEVPGHQSVFMNEPRLSDFKQVLLREGIQAEFVGGVLVCNNQVAVRRTETGRIGLEGCLCQDFYRIRDLLYEQYAIV
B3: FIP1L (protein, UniProt Q6UN15 1-594)
chain: MSAGEVERLVSELSGGTGGDEEEEWLYGGPWDVHVHSDLAKDLDENEVERPEEENASANPPSGIEDETAENGVPKPKVTETEDDSDSDSDDDEDDVHVTIGDIKTGAPQYGSYGTAPVNLNIKTGGRVYGTTGTKVKGVDLDAPGSINGVPLLEVDLDSFEDKPWRKPGADLSDYFNYGFNEDTWKAYCEKQKRIRMGLEVIPVTSTTNKITAEDCTMEVTPGAEIQDGRFNLFKVQQGRTGNSEKETALPSTKAEFTSPPSLFKTGLPPSRNSTSSQSQTSTASRKANSSVGKWQDRYGRAESPDLRRLPGAIDVIGQTITISRVEGRRRANENSNIQVLSERSATEVDNNFSKPPPFFPPGAPPTHLPPPPFLPPPPTVSTAPPLIPPPGFPPPPGAPPPSLIPTIESGHSSGYDSRSARAFPYGNVAFPHLPGSAPSWPSLVDTSKQWDYYARREKDRDRERDRDRERDRDRDRERERTRERERERDHSPTPSVFNSDEERYRYREYAERGYERHRASREKEERHRERRHREKEETRHKSSRSNSRRRHESEEGDSHRRHKHKKSKRSKEGKEAGSEPAPEQESTEATPAE
B4: FOSL2 (protein, UniProt P15408 1-326)
chain: MYQDYPGNFDTSSRGSSGSPAHAESYSSGGGGQQKFRVDMPGSGSAFIPTINAITTSQDLQWMVQPTVITSMSNPYPRSHPYSPLPGLASVPGHMALPRPGVIKTIGTTVGRRRRDEQLSPEEEEKRRIRRERNKLAAAKCRNRRRELTEKLQAETEELEEEKSGLQKEIAELQKEKEKLEFMLVAHGPVCKISPEERRSPPAPGLQPMRSGGGSVGAVVVKQEPLEEDSPSSSSAGLDKAQRSVIKPISIAGGFYGEEPLHTPIVVTSTPAVTPGTSNLVFTYPSVLEQESPASPSESCSKAHRRSSSSGDQSSDSLNSPTLLAL
B5: FOSL1 (protein, UniProt P15407 1-271)
chain: MFRDFGEPGPSSGNGGGYGGPAQPPAAAQAAQQKFHLVPSINTMSGSQELQWMVQPHFLGPSSYPRPLTYPQYSPPQPRPGVIRALGPPPGVRRRPCEQISPEEEERRRVRRERNKLAAAKCRNRRKELTDFLQAETDKLEDEKSGLQREIEELQKQKERLELVLEAHRPICKIPEGAKEGDTGSTSGTSSPPAPCRPVPCISLSPGPVLEPEALHTPTLMTTPSLTPFTPSLVFTYPSTPEPCASAHRKSSSSSGDPSSDPLGSPTLLAL
B6: JUND (protein, UniProt P17535 1-347)
chain: METPFYGDEALSGLGGGASGSGGSFASPGRLFPGAPPTAAAGSMMKKDALTLSLSEQVAAALKPAAAPPPTPLRADGAPSAAPPDGLLASPDLGLLKLASPELERLIIQSNGLVTTTPTSSQFLYPKVAASEEQEFAEGFVKALEDLHKQNQLGAGAAAAAAAAAAGGPSGTATGSAPPGELAPAAAAPEAPVYANLSSYAGGAGGAGGAATVAFAAEPVPFPPPPPPGALGPPRLAALKDEPQTVPDVPSFGESPPLSPIDMDTQERIKAERKRLRNRIAASKCRKRKLERISRLEEKVKTLKSQNTELASTASLLREQVAQLKQKVLSHVNSGCQLLPQHQVPAY
B7: JUNB (protein, UniProt P17275 1-347)
chain: MCTKMEQPFYHDDSYTATGYGRAPGGLSLHDYKLLKPSLAVNLADPYRSLKAPGARGPGPEGGGGGSYFSGQGSDTGASLKLASSELERLIVPNSNGVITTTPTPPGQYFYPRGGGSGGGAGGAGGGVTEEQEGFADGFVKALDDLHKMNHVTPPNVSLGATGGPPAGPGGVYAGPEPPPVYTNLSSYSPASASSGGAGAAVGTGSSYPTTTISYLPHAPPFAGGHPAQLGLGRGASTFKEEPQTVPEARSRDATPPVSPINMEDQERIKVERKRLRNRLAATKCRKRKLERIARLEDKVKTLKAENAGLSSTAGLLREQVAQLKQKVMTHVSNGCQLLLGVKGHAF
B8: CPSF1 (protein, UniProt Q10570 1-1443)
chain: MYAVYKQAHPPTGLEFSMYCNFFNNSERNLVVAGTSQLYVYRLNRDAEALTKNDRSTEGKAHREKLELAASFSFFGNVMSMASVQLAGAKRDALLLSFKDAKLSVVEYDPGTHDLKTLSLHYFEEPELRDGFVQNVHTPRVRVDPDGRCAAMLVYGTRLVVLPFRRESLAEEHEGLVGEGQRSSFLPSYIIDVRALDEKLLNIIDLQFLHGYYEPTLLILFEPNQTWPGRVAVRQDTCSIVAISLNITQKVHPVIWSLTSLPFDCTQALAVPKPIGGVVVFAVNSLLYLNQSVPPYGVALNSLTTGTTAFPLRTQEGVRITLDCAQATFISYDKMVISLKGGEIYVLTLITDGMRSVRAFHFDKAAASVLTTSMVTMEPGYLFLGSRLGNSLLLKYTEKLQEPPASAVREAADKEEPPSKKKRVDATAGWSAAGKSVPQDEVDEIEVYGSEAQSGTQLATYSFEVCDSILNIGPCANAAVGEPAFLSEEFQNSPEPDLEIVVCSGHGKNGALSVLQKSIRPQVVTTFELPGCYDMWTVIAPVRKEEEDNPKGEGTEQEPSTTPEADDDGRRHGFLILSREDSTMILQTGQEIMELDTSGFATQGPTVFAGNIGDNRYIVQVSPLGIRLLEGVNQLHFIPVDLGAPIVQCAVADPYVVIMSAEGHVTMFLLKSDSYGGRHHRLALHKPPLHHQSKVITLCLYRDLSGMFTTESRLGGARDELGGRSGPEAEGLGSETSPTVDDEEEMLYGDSGSLFSPSKEEARRSSQPPADRDPAPFRAEPTHWCLLVRENGTMEIYQLPDWRLVFLVKNFPVGQRVLVDSSFGQPTTQGEARREEATRQGELPLVKEVLLVALGSRQSRPYLLVHVDQELLIYEAFPHDSQLGQGNLKVRFKKVPHNINFREKKPKPSKKKAEGGGAEEGAGARGRVARFRYFEDIYGYSGVFICGPSPHWLLVTGRGALRLHPMAIDGPVDSFAPFHNVNCPRGFLYFNRQGELRISVLPAYLSYDAPWPVRKIPLRCTAHYVAYHVESKVYAVATSTNTPCARIPRMTGEEKEFETIERDERYIHPQQEAFSIQLISPVSWEAIPNARIELQEWEHVTCMKTVSLRSEETVSGLKGYVAAGTCLMQGEEVTCRGRILIMDVIEVVPEPGQPLTKNKFKVLYEKEQKGPVTALCHCNGHLVSAIGQKIFLWSLRASELTGMAFIDTQLYIHQMISVKNFILAADVMKSISLLRYQEESKTLSLVSRDAKPLEVYSVDFMVDNAQLGFLVSDRDRNLMVYMYLPEAKESFGGMRLLRRADFHVGAHVNTFWRTPCRGATEGLSKKSVVWENKHITWFATLDGGIGLLLPMQEKTYRRLLMLQNALTTMLPHHAGLNPRAFRMLHVDRRTLQNAVRNVLDGELLNRYLYLSTMERSELAKKIGTTPDIILDDLLETDRVTAHF
B9: JUN, P05412 1-331 (protein)
chain: MTAKMETTFYDDALNASFLPSESGPYGYSNPKILKQSMTLNLADPVGSLKPHLRAKNSDLLTSPDVGLLKLASPELERLIIQSSNGHITTTPTPTQFLCPKNVTDEQEGFAEGFVRALAELHSQNTLPSVTSAAQPVNGAGMVAPAVASVAGGSGSGGFSASLHSEPPVYANLSNFNPGALSSGGGAPSYGAAGLAFPAQPQQQQQPPHHLPQQMPVQHPRLQALKEEPQTVPEMPGETPPLSPIDMESQERIKAERKRMRNRIAASKCRKRKLERIARLEEKVKTLKAQNSELASTANMLREQVAQLKQKVMNHVNSGCQLMLTQQLQTF

molecular target: NR2E3-MUTT2A-TurboID (human) (UniProt Q9Y5X4); assay: proximity labelling; settings: not given

| binding | Binder |
| --- | --- |
| binds | B1 |
| binds | B2 |
| binds | B3 |
| binds | B4 |
| binds | B5 |
| binds | B6 |
| binds | B7 |
| binds | B8 |

molecular target: NR2E3-MUTT2A-TurboID (human), Q9Y5X4; assay: proximity labelling; settings: remark: other sources report otherwise

| binding | Binder |
| --- | --- |
| binds | B9 |
